We go through two molecules from patent US20210395318A1.

Protein sequences, listed by entry. Tags and fused reporters are not part of them. Lines headed by an entry give the natural chain unless they say otherwise; changes in a name come on top. Chains listed by the source or under a name are the forms on record and can include a tag or linker.
biotinylated cynomolgus CD40 (Acro Biosystem) (G7PG38, form named): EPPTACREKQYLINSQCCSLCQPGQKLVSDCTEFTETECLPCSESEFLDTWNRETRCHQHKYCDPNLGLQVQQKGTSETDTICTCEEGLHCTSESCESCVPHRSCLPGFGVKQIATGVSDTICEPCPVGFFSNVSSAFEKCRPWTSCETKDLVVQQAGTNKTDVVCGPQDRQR
UniProt P25942: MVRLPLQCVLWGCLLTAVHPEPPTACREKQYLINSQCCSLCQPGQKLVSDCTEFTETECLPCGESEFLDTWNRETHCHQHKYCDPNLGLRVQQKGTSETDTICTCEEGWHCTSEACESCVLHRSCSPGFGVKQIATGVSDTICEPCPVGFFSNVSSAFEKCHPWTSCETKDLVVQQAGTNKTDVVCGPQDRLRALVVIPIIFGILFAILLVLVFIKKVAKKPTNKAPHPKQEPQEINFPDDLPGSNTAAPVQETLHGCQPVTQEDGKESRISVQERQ

The target of assay [1] is biotinylated cynomolgus CD40 (Acro Biosystem) (cynomolgus) (UniProt G7PG38). Description: SPR. Background: SPR reads the build-up and loss of mass on a sensor chip optically.
Assay [2] addresses biotinylated human CD40 (Acro Biosystem) (human) (UniProt P25942). The experiment in a line: SPR.
The target of assay [3] is biotinylated human CD40 (bio-hCD40-Fc) (human) (UniProt P25942). Description: SPR, sequential injections.
Assay [4] addresses recombinant hCD40 expressed in Hi5 cells (human tumor necrosis factor receptor superfamily member 5) (human) (UniProt P25942). The experiment in a line: X-ray crystallography of the complex.
For assay [5] the target is unchanged. The experiment in a line: X-ray crystallography of the complex, 2.29 A.

These are yes or no findings as the source states them, for the method shown. Some results given as binding are weak or reduced against the parent protein; the word gives no strength.

B1: DARPin Protein #5 (designed binder)
chain: GSDLGKKLLEAARAGQDDEVRELLKAGADVNAKDYFSHTPLHLAARNGHLKIVEVLLKAGADVNAKDFAGKTPLHLAAADGHLEIVEVLLKAGADVNAQDIFGKTPADIAADAGHEDIAEVLQKAAGSPTPTPTTPTPTPTTPTPTPTGSDLGKKLLEAARAGQDDEVRILLAAGADVNAKDVLGWTPLHLAAFEGHLEIVEVLLKAGADVNAKDKKGWTPLQLAARTGHLEIVEVLLKAGADVNAKDHIGATPLHLAAWQGHPEIVEVLLKAGADVNAQDKSGKTPADLAADAGHEDIAEVLQKAAGSPTPTPTTPTPTPTTPTPTPTGSDLGKKLLQAARAGQLDEVRELLKAGADVNAKDTWGFTPLHIAAESGHLEIVEVLLKAGADVNAKDVQGRTPLHIAAHSGHLEIVEVLLKAGADVNAKDFRGWTPLHLAAWSGHLEIVEILLKAGADVNAQDKSGKTPADLAARAGHQDIAEVLQKAAGSPTPTPTTPTPTPTTPTPTPTGSDLGKKLLQAARAGQLDEVRELLKAGADVNAKDTWGFTPLHIAAESGHLEIVEVLLKAGADVNAKDVQGRTPLHIAAHSGHLEIVEVLLKAGADVNAKDFRGWTPLHLAAWSGHLEIVEILLKAGADVNAQDKSGKTPADLAARAGHQDIAEVLQKAA
Consider B1, for which the binding entry in assay [1], in assay [2] and in assay [3] was “binds” in each case.

B2: CD40-specific DARPin protein with the amino acid sequence of SEQ ID NO: 3 (designed binder)
chain: DLGKKLLQAARAGQLDEVRELLKAGADVNAKDTWGFTPLHIAAESGHLEIVEVLLKAGADVNAKDVQGRTPLHIAAHSGHLEIVEVLLKAGADVNAKDFRGWTPLHLAAWSGHLEIVEILLKAGADVNAQDKSGKTPADLAARAGHQDIAEVLQKAA
Regarding B2, the binding result in assay [4] and in assay [5] was “binds” each time.
